Library screen at single concentrations

Sequences of proteins named here, by UniProt entry; tags and fusion partners are left off. Residues count along the entry.
UniProt Q4DA54, 1-478: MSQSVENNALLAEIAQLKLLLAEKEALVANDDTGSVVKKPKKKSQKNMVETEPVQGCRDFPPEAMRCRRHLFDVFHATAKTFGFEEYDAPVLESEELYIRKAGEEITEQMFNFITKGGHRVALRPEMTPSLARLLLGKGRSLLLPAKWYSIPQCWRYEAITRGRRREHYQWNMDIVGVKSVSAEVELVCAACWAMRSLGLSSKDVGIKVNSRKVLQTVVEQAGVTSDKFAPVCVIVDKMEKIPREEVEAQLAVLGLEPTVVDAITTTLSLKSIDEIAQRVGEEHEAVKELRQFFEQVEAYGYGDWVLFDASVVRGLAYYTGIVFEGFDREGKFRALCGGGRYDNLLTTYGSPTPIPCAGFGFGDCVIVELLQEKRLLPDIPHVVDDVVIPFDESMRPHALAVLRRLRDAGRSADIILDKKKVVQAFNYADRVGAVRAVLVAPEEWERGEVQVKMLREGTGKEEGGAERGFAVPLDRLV

From ChEMBL document CHEMBL3988442, “University of Dundee, Small-Polar-MMV Screening Library” (2021).

A: 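Assay of Toxoplasma gondii numbers, read through their beta-galactosidase reporter with a colour substrate. Concentration: 10 µM. The record gives no direction; the compounds picked for IC50 retests had high values, so higher reads as fewer parasites. About 67,000 compounds were tested under these conditions; 0.38% (about 260) showed 50% or more at least once.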
B: 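Histidine-tRNA ligase, Trypanosoma cruzi CL Brener (UniProt Q4DA54). Enzyme assay of histidyl-tRNA synthetase; the read-out is not stated. Tested at 30 µM. Direction is inferred from retests: higher values go with stronger inhibition. Size under these conditions: about 69,000 compounds, about 31 of them at 50% or above in at least one test.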

Values are the deposited “Percent Effect”, in %. The controls that fix the scale are not given in the record; negative values are as filed. This is an unselected part of the compounds tested. A dash means the value is not listed here; it may have been measured.

| SMILES | A | B |
|---|---|---|
| `O=C(CCn1cc(Cl)cn1)N1CCN(CC2CC2)[C@@H]2CS(=O)(=O)C[C@@H]21` | - | 5.6 |
| `CSc1ncc(Cl)c(C(=O)NC(Cc2ccccc2)C(=O)O)n1` (stereo not shown) | 1.407 | 1.156 |
| `COc1cc(N2CC[C@@H](O)[C@@H]2Cc2cccnc2)ncn1` | - | 14.29 |
| `CS(=O)(=O)NCc1cnc2n1CCN(Cc1ccoc1)CC2.O=C(O)C(F)(F)F` | 5.621 | - |
| `COCCCN1CC2(CCN(Cc3ncc[nH]3)CC2)CC1=O` | -6.338 | 3.333 |
| `CC(=O)N1CCN(Cc2ccco2)CC2(CC(=O)N(C)C2)C1.O=C(O)C(F)(F)F` (stereo not shown) | 6.34 | - |
| `CNC(=O)CCCNc1cc(C)nc2cc(C)nn12` | 7.663 | 3.061 |
| `CCc1ccc(C(CNC(=O)c2c(C)noc2C)N(C)C)cc1` (stereo not shown) | -3.696 | 3.79 |
| `Cc1nn(C)cc1-c1cc(C(F)F)nc(NC2CCCCC2)n1` | 3.927 | 5.155 |
| `Cl.Cl.c1ccc(NCc2cn3c(n2)CNCC3)nc1` | 2.463 | - |
| `Cc1ccccc1CSc1nc(N)cc(N2CCC(CC(N)=O)CC2)n1` | 2.367 | 22.83 |
| `CCC1(CNC(=O)NC(c2nnc3n2CCC3)C(C)C)CCC1` (stereo not shown) | 6.861 | 4.036 |
| `Cc1nn(C)c(C)c1C1COCCN1C(=O)c1ccccc1` (stereo not shown) | 4.235 | -2.29 |
| `Fc1cc(CCNc2ccc3nccn3n2)c2c(c1)COCO2` | 5.811 | 8.036 |
| `CCCc1n[nH]c(C2CN(Cc3nnc(C4CC4)n3C)CCO2)n1` (stereo not shown) | 0.9265 | 0 |
| `CC(=O)Nc1nc(C2CCN(C(C)C)CC2)cs1` | 14.21 | 8.889 |
| `CSCCC(NC(=O)c1nc(SC)ncc1Cl)C(=O)O` (stereo not shown) | 9.634 | -1.156 |
| `Cc1ccc2c(c1)OC(C)CN2C(=O)CCc1cccnc1` (stereo not shown) | -3.414 | 3.933 |
| `CCOCC1CN(Cc2ccoc2)Cc2nn(C)cc21.O=C(O)C(F)(F)F` (stereo not shown) | 6.04 | - |
| `CCS(=O)(=O)N1CCC2(CCC(N3CCCC3)c3ccccc32)CC1` (stereo not shown) | - | 2.454 |
| `Cc1ccc2c(c1)C1(CC2)CCN(CC(=O)O)CC1.O=C(O)C(F)(F)F` | 8.451 | - |
| `Cc1cccc(CN(Cc2ccccn2)S(=O)(=O)N(C)C)c1` | 10.46 | 10.26 |
| `Cn1cnnc1C1CCN(C(=O)Cc2ccc3c(c2)OCCO3)CC1` | -1.621 | 1.681 |
| `O=C(c1ccoc1)N1CC[C@@H]2[C@H]1CCC(=O)N2c1ccccc1` | - | 4.918 |
| `CCOC(=O)c1ccc(S(=O)(=O)NCC(CC)N2CCCC2)cc1` (stereo not shown) | -13.16 | 6.878 |
| `CC(C)(CN1CCCC1)CN1CCC(Cn2cc(CCO)nn2)CC1` | -16.08 | 2.899 |
| `COc1ccc(C)cc1CNCc1ccc(-n2nc(C)cc2C)nc1` | -18.21 | 7.224 |
| `Cc1cnc2c(S(=O)(=O)NCC3CCS(=O)(=O)C3)cccc2c1` (stereo not shown) | -10.48 | -1.515 |
| `O=C(O)C(F)(F)F.[H][C@@]12COC[C@]1(C(=O)NC1CC(F)(F)C1)CN(Cc1scnc1C)C2` | -10.99 | - |
| `Cc1cc(C(=O)NCC2(N(C)C)CCCC2)c(C)n1-c1cccnc1` | -0.4528 | 2.532 |
| `O=C1CCC2(CCN(CCSc3ccccc3)CC2)CN1CCCO` | -1.818 | 3.03 |
| `Cc1noc([C@H]2COC[C@H]3CN(C(=O)Cc4ccccc4F)C[C@H]32)n1` | - | 2.439 |
| `Cc1nc(C2(O)CCCNCC2)sc1CCOc1ccc(F)c(F)c1.Cl` (stereo not shown) | 36.46 | - |
| `O=S(=O)(CCNC1CCc2ncnn2C1)c1ccc(Cl)cc1` (stereo not shown) | 16.66 | 5.413 |
| `O=C(O)C(F)(F)F.[H][C@]12CCC[C@@]1(COc1ccccn1)CN(S(=O)(=O)CC)C2` | -5.14 | - |
| `Cc1cc(CN2CCN(CC(=O)NC3(C#N)CCCCC3)CC2)on1` | -4.463 | 0 |
| `CNCC(=O)N1CCCCC1c1nccc(C)n1` (stereo not shown) | -7.036 | 4.494 |
| `C=C(C)COc1ccc(C(CC(=O)OC)c2oc(C)cc(=O)c2O)cc1` (stereo not shown) | 7.784 | 2.41 |
| `NS(=O)(=O)c1cc(C(=O)N2CCCCC2)cs1` | -6.288 | 5.155 |
| `NC(=O)NC(=O)CN1CCN(CC2CC2)c2ccccc21` | 2.135 | 7.595 |
| `Cc1nc(CN2CCN(Cc3nccn3C)CC2)no1` | 3.711 | -1.132 |
| `CCC(C(=O)NC1CCCCC1)n1cccc(OC)c1=O` (stereo not shown) | 8.649 | -0.5525 |
| `CCC(C)[C@H](NC(=O)c1cc(F)ccc1-n1cnnn1)C(=O)OC` (stereo partly shown) | -37.87 | 1.98 |
| `COCCN1CCC(NCc2cccc(C)c2)C1` (stereo not shown) | 8.551 | 4.571 |
| `Cc1cccc(CN2C[C@@H](F)[C@@H](OCc3nc4ccccc4[nH]3)C2)n1` | 12.87 | -0.4975 |
| `CN(CCc1ccccn1)C(=O)Nc1cccnc1-n1cccn1` | -7.099 | 4.762 |
| `CCNc1ccnc(NCc2cn3nc(C)sc3n2)n1` | -4.956 | 8.287 |
| `O=C(Nc1cccc(OCC(F)F)n1)c1ccncc1F` | -22.27 | 4.741 |

Repeated from the top, 4 entries:

With O=C(CCn1cc(Cl)cn1)N1CCN(CC2CC2)[C@@H]2CS(=O)(=O)C[C@@H]21 the screen gave B: 5.6%.
With CSc1ncc(Cl)c(C(=O)NC(Cc2ccccc2)C(=O)O)n1 (stereo not shown) the screen gave A: 1.407%; B: 1.156%.
With COc1cc(N2CC[C@@H](O)[C@@H]2Cc2cccnc2)ncn1 the screen gave B: 14.29%.
With CS(=O)(=O)NCc1cnc2n1CCN(Cc1ccoc1)CC2.O=C(O)C(F)(F)F the screen gave A: 5.621%.